Measured values published in PubChem BioAssay AID222 (DTP/NCI, 2004).
The list does not hold the whole screen: it gathers tests that were run many times, whatever their T/C, doses with no T/C, and many T/C values between a quarter and a half above the control. Other doses and runs of a compound stand elsewhere. T/C: endpoint of the treated group in % of that of the vehicle group. Some entries give survivors of the animals treated and no T/C: the source files T/C as zero there, which appears to mark a toxic dose or a test without result, not a measured value. Some doses without a T/C left all or most animals alive at the check, yet need not have been tolerated: survival well below the control is almost never listed, so the zero probably covers shortened survival too. Counts of survivors are from the toxicity check (mostly the fifth day) where no day follows; animals may have died later. Schedule codes are those of the source, taken here to give the interval after Q, in days (D) or hours (H), and the number of doses after X. Signs of the kind (2×) stand for listed records that agree. Some doses were run more than once; the results are listed from low to high. Where survival is the endpoint, the PubChem record calls one and a half times the control and up active, and a quarter to a half above the control has no call in these data; cut-offs in other NCI protocols can differ. Some T/C values carry the count of animals alive at the toxicity check (mostly the fifth day); without a count, all were alive then.

System: C57BL/6 mice, intracerebral ependymoblastoma, median survival T/C
Test: NCI In Vivo Anticancer Drug Screen. Data for tumor model Ependymoblastoma (intracerebral) in C57BL/6 mice
Conditions: T/C endpoint: median survival time, higher T/C = longer survival
Protocol: The antitumor activity of compounds was measured in mice bearing transplantable tumors. Survival or tumor size were measured and the results are expressed as the measurement made in the treated group (T) divided by the measurement made in the vehicle treated control group (C). The tumor model used in this assay is Ependymoblastoma (intracerebral) in C57BL/6 mice

[1] = dose: 8.0 mg/kg/injection, schedule: Q01DX005 (ip), vehicle: Klucel (hydroxypropylcellulose) (HPC)
[2] = dose: 8.0 mg/kg/injection, schedule: Q01DX005 (ip), vehicle: saline
[3] = dose: 16.0 mg/kg/injection, schedule: Q01DX005 (ip), vehicle: saline
[4] = dose: 32.0 mg/kg/injection, schedule: Q01DX005 (ip), vehicle: saline

`O=CC(NC(=O)N(CCCl)N=O)C(O)C(O)C(O)CO` (configuration not stated) was tested, and the T/C (dose: 0.25 mg/kg/injection, schedule: Q01DX005 (ip), vehicle: saline, evaluated on day 45) was 94 [9 of 10 alive] and 98 % of control, the T/C (dose: 0.25 mg/kg/injection, schedule: Q01DX005 (ip), vehicle: saline, evaluated on day 60) was 95 and 108 % of control and the T/C (dose: 0.5 mg/kg/injection, schedule: Q01DX005 (ip), vehicle: saline, evaluated on day 45) was 97 and 103 % of control. For the same molecule, the T/C (dose: 0.5 mg/kg/injection, schedule: Q01DX005 (ip), vehicle: saline, evaluated on day 60) was 101 and 103 % of control, the T/C (dose: 1.0 mg/kg/injection, schedule: Q01DX005 (ip), vehicle: Klucel (hydroxypropylcellulose) (HPC)) was 101, 104 [9 of 10 alive], 105, 112 % of control and the T/C (dose: 1.0 mg/kg/injection, schedule: Q01DX005 (ip), vehicle: saline, evaluated on day 45) was 88 and 103 % of control. The T/C (dose: 1.0 mg/kg/injection, schedule: Q01DX005 (ip), vehicle: saline, evaluated on day 60) was 105 and 112 % of control, the T/C (dose: 2.0 mg/kg/injection, schedule: Q01DX005 (ip), vehicle: Klucel (hydroxypropylcellulose) (HPC)) was 103 [6 of 9 alive], 110, 111, 117 % of control and the T/C (dose: 2.0 mg/kg/injection, schedule: Q01DX005 (ip), vehicle: saline, evaluated on day 45) was 94 and 122 % of control. The T/C (dose: 2.0 mg/kg/injection, schedule: Q01DX005 (ip), vehicle: saline, evaluated on day 60) was 98 and 105 % of control, the T/C (dose: 4.0 mg/kg/injection, schedule: Q01DX005 (ip), vehicle: Klucel (hydroxypropylcellulose) (HPC)) was 109 (2×), 114, 131 % of control and the T/C (dose: 4.0 mg/kg/injection, schedule: Q01DX005 (ip), vehicle: saline, evaluated on day 45) was 112 and 129 % of control. For the same molecule, the T/C (dose: 4.0 mg/kg/injection, schedule: Q01DX005 (ip), vehicle: saline, evaluated on day 60) was 103, 107, 122 % of control, the T/C [1] was 118 [9 of 10 alive], 119, 151 % of control and the survivor count [1] was 10 of 10. For the same molecule, the T/C (dose: 8.0 mg/kg/injection, schedule: Q01DX005 (ip), vehicle: saline, evaluated on day 45) was 124 and 130 % of control, the T/C (dose: 8.0 mg/kg/injection, schedule: Q01DX005 (ip), vehicle: saline, evaluated on day 60) was 117 and 118 % of control [9 of 10 alive] and the survivor count [2] was 9 of 10. For the same molecule, the survivor count (dose: 16.0 mg/kg/injection, schedule: Q01DX005 (ip), vehicle: Klucel (hydroxypropylcellulose) (HPC)) was 8 of 10, 9 of 10, 10 of 10, the T/C [3] was 143 % of control and the survivor count [3] was 10 of 10 (2×). The T/C (dose: 16.0 mg/kg/injection, schedule: Q01DX005 (oral), vehicle: saline) was 135 % of control, the survivor count [4] was 8 of 10 and the survivor count (dose: 64.0 mg/kg/injection, schedule: Q01DX005 (ip), vehicle: saline) was 2 of 10. The survivor count (dose: 128.0 mg/kg/injection, schedule: Q01DX005 (oral), vehicle: saline) was 8 of 10 and the survivor count (dose: 256.0 mg/kg/injection, schedule: Q01DX005 (oral), vehicle: saline) was 7 of 10.

With `N[C@@H](Cc1ccc(N(CCCl)CCCl)cc1)C(=O)O` the T/C (dose: 0.5 mg/kg/injection, schedule: Q01DX005 (ip), vehicle: saline) was 131 % of control, the T/C (dose: 2.0 mg/kg/injection, schedule: Q01DX005 (ip), vehicle: saline) was 141 % of control and the survivor count (dose: 4.0 mg/kg/injection, schedule: Q01DX001 (ip), vehicle: saline) was 10 of 10. For the same molecule, the T/C (dose: 4.0 mg/kg/injection, schedule: Q01DX005 (ip), vehicle: saline) was 127 % of control, the survivor count [2] was 8 of 10 and 9 of 10 and the T/C [3] was 131 % of control. For the same molecule, the survivor count [4] was 4 of 6.

In the case of `CCC1CC2CN(CCc3c([nH]c4ccccc34)C(C(=O)OC)(c3cc4c(cc3OC)N(C)C3C(O)(C(=O)OC)C(OC(C)=O)C5(CC)C=CCN6CCC43C65)C2)C1` (configuration not stated), the survivor count (dose: 3.2 mg/kg/injection, schedule: Q01DX005 (ip), vehicle: Klucel (hydroxypropylcellulose) (HPC)) is reported as 3 of 6, the survivor count (dose: 6.4 mg/kg/injection, schedule: Q01DX005 (ip), vehicle: Klucel (hydroxypropylcellulose) (HPC)) is reported as 0 of 6 and the survivor count (dose: 12.8 mg/kg/injection, schedule: Q01DX005 (ip), vehicle: Klucel (hydroxypropylcellulose) (HPC)) is reported as 0 of 6.

`O=C1C(=O)c2ccccc2C(O)=C1CC=C(Cl)Cl` was tested, and the survivor count (dose: 128.0 mg/kg/injection, schedule: Q01DX005 (ip), vehicle: Klucel (hydroxypropylcellulose) (HPC)) was 0 of 10 and 1 of 10.
